Measurements as given in article PMC10123104 (Nucleic Acids Research, 2023).

Assay: general procedure: Fmoc solid-phase peptide synthesis; preloaded Wang resins (Fmoc-Arg(Pbf)-Wang, Fmoc-Asp(tBu)-Wang, Fmoc-Glu(tBu)-Wang, Fmoc-Gln(Trt)-Wang); Rink amide-AM re; DIC/Oxyma
Details: whole synthesis, TFA salt

## H‐LEEIAEED DED ADDDADED D‐OH
  isolated yield: 18%
Analytical RP-HPLC
  final HPLC purity: >99%
